PMC12040169 (PLOS Biology, 2025)
The list shows a part of the results.

tested on: T1, CTL2-GFP (C. trachomatis L2/434/Bu, GFP-expressing); parameters: species or system HeLa; Intracellular C. trachomatis growth in HeLa cells, bulk GFP fluorescence relative to DMSO; conditions: bulk GFP, single well; 28.5 h, 10 µM; inhibitor
T1 construct: L2/434/Bu, GFP-expressing

Row | Compound | % of control remaining [%]
1 | CC(=O)N1C[C@@H](c2ccsc2)[C@@H]2CN(Cc3ccccc3)CC[C@@H]21 [CBK284585] | 93.2848
2 | CN(C)CCNC(=O)c1cccc(Oc2ccccc2)c1 [CBK270310] | 136.73
3 | C=CCn1c(Cc2csc(NC(=O)c3cccc([N+](=O)[O-])c3)n2)n[nH]c1=S [CBK295339] | 143.112
4 | Cc1cccc(-c2ncc(NC(=O)C3CC3)nc2-c2cccnc2)c1 [CBK037134] | 79.539
5 | O=C(CSc1nc2ccccc2c2nc3ccccc3n12)Nc1cccc(Cl)c1 [CBK267872] | 135.408
6 | Cc1cc(-c2nnc(SCC(=O)N3CCCCC3)o2)no1 [CBK268731] | 144.963
7 | CCOC(=O)c1ccc(-n2c(CCC(=O)O)ccc2-c2cccs2)cc1O [CBK266015] | 79.1136
8 | O=C(O)c1cc(S(=O)(=O)N2CCCCC2)ccc1O [CBK286595] | 92.5733
9 | CCOC(=O)N1COC[C@@H]1C(=O)O [CBK010379] | 141.759
10 | COc1cc(C=CC(=O)O)ccc1OCC(=O)N1CCN(CC(=O)NC(C)(C)C)CC1 [CBK296987] | 108.258
11 | CCc1ccc(CN2CCN(C(=O)c3ccncc3)CC2)cc1 [CBK301211G] | 169.996
12 | CCCCSc1cc(C)nc2ncnn12 [CBK021443] | 124.493
13 | C/C(=N/Nc1nc[nH]n1)c1ccc(Cl)c(Cl)c1 [CBK028722] | 129.644
14 | O=C(c1ccc(N2CC=CCC2)nc1)N1CCC(N2CCOCC2)CC1 [CBK307334] | 144.943
15 | CCCC1CCCN(Cc2nnnn2-c2ccc(S(C)(=O)=O)cc2)C1 (centres unmarked) [CBK304142] | 97.3158
16 | O=C(c1cc(-c2ccc(Cl)cc2)[nH]n1)N1CCNCC1 [CBK116548] | 64.7568
17 | CCn1c(CN2CCCC2c2nc(N(C)C)ncc2-c2ccccc2)nc2ccccc21 (centres unmarked) [CBK286070] | 87.8153
18 | COc1cccc2sc(Nc3nc4c(s3)C(=O)CC(C)(C)C4)nc12 [CBK287467] | 92.1804
19 | CC(NC(=O)c1ncoc1-c1ccccc1)c1ccccn1 (centres unmarked) [CBK283889] | 113.939
20 | Cc1cc(Cl)c(S(=O)(=O)N2CCCC2)cc1OCC(=O)NC1CCCCC1 [CBK266781] | 120.8
21 | CN(C)S(=O)(=O)N(C)c1ccc(C(=O)O)cc1 [CBK287244] | 123.427
22 | Cc1ccc(CN2CCC3(CCCNC3=O)CC2)cc1 [CBK284822] | 121.236
23 | NC(=O)c1ccc(NC(=O)N2CCN(CCc3ccccc3)CC2)cc1 [CBK158924] | 127.861
24 | COc1ccc2c(c1)CC(=O)NC21CCN(C(=O)NC(C)C)CC1 [CBK047261] | 99.1759
25 | COc1ccc(-c2cc(C(=O)Nc3ccc(CCO)cc3)cnc2-c2cccc(C)c2)cn1 [CBK037461] | 180.108
26 | COc1ccccc1C(NC(=O)C1CCN(CCc2c[nH]c3ccccc23)CC1)c1ccccn1 (centres unmarked) [CBK147923] | 152.59

A draw from above in order of number of heavy atoms, largest number first:
Row | Compound | % of control remaining [%]
20 | Cc1cc(Cl)c(S(=O)(=O)N2CCCC2)cc1OCC(=O)NC1CCCCC1 [CBK266781] | 120.8
23 | NC(=O)c1ccc(NC(=O)N2CCN(CCc3ccccc3)CC2)cc1 [CBK158924] | 127.861
1 | CC(=O)N1C[C@@H](c2ccsc2)[C@@H]2CN(Cc3ccccc3)CC[C@@H]21 [CBK284585] | 93.2848
11 | CCc1ccc(CN2CCN(C(=O)c3ccncc3)CC2)cc1 [CBK301211G] | 169.996
16 | O=C(c1cc(-c2ccc(Cl)cc2)[nH]n1)N1CCNCC1 [CBK116548] | 64.7568

Going on with the list:

Row | Compound | % of control remaining [%]
27 | O=C(NCC1COc2ccccc2O1)c1ccc2[nH]ccc2c1 (centres unmarked) [CBK149054] | 120.773
28 | CCCNc1nccnc1-c1ccccc1F [CBK037231] | 104.197
29 | CC(C)(C)c1cc(NC(=O)CSc2ccc(S(=O)(=O)N3CCCC3)cn2)n(-c2ccccc2)n1 [CBK297099] | 144.964
30 | CC1CCCCN1Cc1nc2c(c(=O)n(C)c(=O)n2C)n1Cc1ccccc1 (centres unmarked) [CBK269203] | 95.1513
31 | Cc1ccc(C(=O)N2CCN(S(=O)(=O)c3sc(C(=O)O)c(C)c3C(=O)O)CC2)cc1 [CBK297120] | 191.41
32 | Cc1oc(-c2ccccc2)cc1C(=O)Nc1ccc(N2CCNCC2)nc1 [CBK034127T] | 89.8617
33 | Cc1ccccc1Cc1cccc(C2CCN(CC(=O)Nc3nccs3)CC2)n1 [CBK286089] | 84.3725
34 | Cc1ccc(Cn2nc(C)c(C(=O)OCc3cc(=O)n4ccccc4n3)c2Cl)cc1 [CBK297550] | 86.6961
35 | CCOc1ccc(S(=O)(=O)N2CCCN(CCCC#N)CC2)c2cccnc12 [CBK062935] | 113.284
36 | Cc1cc(C)n(-c2cc(N3CCN(S(=O)(=O)Cc4ccccc4)CC3)ccc2[N+](=O)[O-])n1 [CBK264407] | 102.843
37 | CN1CCN(C(=O)c2ccsc2NS(=O)(=O)Cc2ccccc2)CC1 [CBK042266] | 105.764
38 | O=C(CSc1n[nH]c(=O)[nH]c1=O)N/N=C/c1cccs1 [CBK263508] | 107.94
39 | CN(Cc1ccsc1)C(=O)c1cccc(S(=O)(=O)NCC2CCCO2)c1 (centres unmarked) [CBK304232] | 79.4
40 | O=C(CN1CCN(S(=O)(=O)N2CCCCC2)CC1)Nc1ccc(Br)cc1 [CBK269515] | 112.178
41 | COc1ccc(C(=O)N[C@H]2C[C@H]3C(=O)NC[C@@H](CCC(=O)N4CCN(C)CC4)N3C2)cc1 [CBK289016] | 125.394
42 | CCCC(=O)N1CCC(c2nnc(-c3ccsc3)o2)CC1 [CBK283377] | 110.431
43 | CCCc1cc(C(=O)NC(C)(C)CN2CCCC(C)C2)[nH]n1 (centres unmarked) [CBK282467] | 147.254
44 | O=C(CN1CCC(NC(=O)c2ccccc2)CC1)Nc1ccccc1 [CBK074716] | 121.734
45 | COc1cc(/C=C(/C#N)c2ccc(C(=O)O)cc2)ccc1OCc1cccc([N+](=O)[O-])c1 [CBK269057] | 83.7671
46 | COc1ccccc1/C=C/c1nn2c(C(C)C)nnc2s1 [CBK269501] | 142.201
47 | O=C1c2cccc3cccc(c23)C(=O)N1CCN1CCN(CC(O)COc2ccc(Cl)cc2Cl)CC1 (centres unmarked) [CBK264881] | 100
48 | Cc1nn2c(C3CCCNC3)ccnc2c1-c1ccc(F)cc1 (centres unmarked) [CBK284139] | 100.293
49 | O=C(CSc1nc2ccccc2[nH]1)c1ccccc1 [CBK261298] | 110.641
50 | Fc1ccc(C2CCCN(CCCOc3cccc(F)c3)C2)cc1 (centres unmarked) [CBK016228B] | 100
51 | Cc1ccc(S(=O)(=O)NCC(=O)N2CCOCC2)cc1[N+](=O)[O-] [CBK050597] | 123.447
52 | O=C(N/N=C\c1ccccc1O)c1nc([N+](=O)[O-])n[nH]1 [CBK261475] | 112.593

Row | Compound | % of control remaining [%]
53 | Cn1nc(NC(=O)Cc2ccsc2)c2c(N3CCOCC3)cccc21 [CBK307023] | 110.254
54 | CCn1cc(CN2C3CCC2CC(O)(c2ccccc2F)C3)cn1 (centres unmarked) [CBK282662] | 132.555
55 | Cc1cc(-c2cn(C)nc2C2CCCCN2C(=O)C2CCC2)on1 (centres unmarked) [CBK283403] | 122.588
56 | CCC(=O)N1CC[C@H]2NC(=O)c3ccccc3OCC/C=C/C[C@H]2C1 [CBK291999] | 136.876
57 | Fc1ccc(Oc2nccnc2N2CCN(Cc3ccc(Cl)cc3)CC2)cc1 [CBK083010T] | 163.108
58 | COc1ccc(C(C)C)cc1-c1cncc(NC(C)CCCC(C)(C)O)n1 (centres unmarked) [CBK065521] | 114.259
59 | CC(=O)Nc1c(O)nc(SCC(=O)Nc2ccc(C(C)=O)cc2)[nH]c1=O [CBK268527] | 117.667
60 | CC(=O)NCCNC(=O)c1cc(Br)cnc1NCCOc1ccccc1 [CBK076232] | 85.7393
61 | S=C1NC2c3ccccc3OC3(CCCCC23)N1 (centres unmarked) [CBK288506] | 112.801
62 | O=C(c1cc(CO)ccn1)N(Cc1ccccn1)CC1CCCO1 (centres unmarked) [CBK306820] | 120.301
63 | N#CCCCN1CCC2(CC1)CN(CC(N)=O)c1ccccc12 [CBK137024] | 89.4647
64 | Cc1ccc(-n2c(SCC(=O)N3CCC(C(=O)O)CC3)nc3ccccc3c2=O)cc1C [CBK297540] | 140.412
65 | COc1ccccc1Nc1nc(N)nc(CSc2nccn2C)n1 [CBK266710] | 142.958
66 | CCOc1ccc2nc(NS(=O)(=O)c3cc(C(=O)O)c(Cl)cc3Cl)sc2c1 [CBK299789] | 131.616
67 | CCOC(=O)c1c(NC(=O)Cn2nc(C(F)(F)F)c(Cl)c2C)sc2c1CCCC2 [CBK263019] | 122.506
68 | Cc1cc(C(=O)N(C)C2CCCCC2)no1 [CBK057375] | 109.638
69 | CCC(CC)C(=O)Nc1ccc([C@@H](O)[C@H]2COCC(=O)N2CC)cc1 [CBK289684] | 127.351
70 | O=C(Cc1ccc(F)cc1F)Nc1ccc2cc[nH]c2c1 [CBK160044] | 215.631
71 | COc1ccc(CCOc2nccnc2-c2ccsc2)cc1 [CBK106775] | 84.0578
72 | CC(=O)N1C[C@H](O)C[C@H]1C(=O)N1CC[C@H]2NC(=O)[C@H](Cc3ccccc3)NC(=O)C3(C/C=C/C[C@H]2C1)CCOCC3 [CBK292204] | 134.823
73 | CC(C)(C)c1ccc(S(=O)(=O)N/N=C\c2ccc(Cl)cc2Cl)cc1 [CBK264759] | 100
74 | Nc1nc(N)nc(CSc2ncc(-c3ccccc3)n2-c2ccccc2)n1 [CBK297103] | 155.075
75 | Cc1c(OCc2cnn(-c3ccccc3)c2)ccc(-c2n[nH]c(C(F)(F)F)c2-c2ccccc2)c1O [CBK264962] | 38.9525
76 | NC(=O)CC[C@H](N)C(=O)N1CC[C@@H]2NC(=O)[C@H](Cc3ccccc3)NC(=O)C3(C/C=C/C[C@@H]2C1)CCOCC3 [CBK292199] | 160.319
77 | O=C(c1ccc(F)cc1)C1CCN(Cc2ccc(Cl)c(Cl)c2)CC1 [CBK149114] | 134.583
